Results on 2 compounds are retold here after patent publication US8569344B2, “N-piperidinyl acetamide derivatives as calcium channel blockers” (Zalicus Pharmaceuticals Ltd., priority 2008, dated 2013).

Protein sequences, listed by entry. Tags and fused reporters are not part of them.
UniProt O95180, whole entry: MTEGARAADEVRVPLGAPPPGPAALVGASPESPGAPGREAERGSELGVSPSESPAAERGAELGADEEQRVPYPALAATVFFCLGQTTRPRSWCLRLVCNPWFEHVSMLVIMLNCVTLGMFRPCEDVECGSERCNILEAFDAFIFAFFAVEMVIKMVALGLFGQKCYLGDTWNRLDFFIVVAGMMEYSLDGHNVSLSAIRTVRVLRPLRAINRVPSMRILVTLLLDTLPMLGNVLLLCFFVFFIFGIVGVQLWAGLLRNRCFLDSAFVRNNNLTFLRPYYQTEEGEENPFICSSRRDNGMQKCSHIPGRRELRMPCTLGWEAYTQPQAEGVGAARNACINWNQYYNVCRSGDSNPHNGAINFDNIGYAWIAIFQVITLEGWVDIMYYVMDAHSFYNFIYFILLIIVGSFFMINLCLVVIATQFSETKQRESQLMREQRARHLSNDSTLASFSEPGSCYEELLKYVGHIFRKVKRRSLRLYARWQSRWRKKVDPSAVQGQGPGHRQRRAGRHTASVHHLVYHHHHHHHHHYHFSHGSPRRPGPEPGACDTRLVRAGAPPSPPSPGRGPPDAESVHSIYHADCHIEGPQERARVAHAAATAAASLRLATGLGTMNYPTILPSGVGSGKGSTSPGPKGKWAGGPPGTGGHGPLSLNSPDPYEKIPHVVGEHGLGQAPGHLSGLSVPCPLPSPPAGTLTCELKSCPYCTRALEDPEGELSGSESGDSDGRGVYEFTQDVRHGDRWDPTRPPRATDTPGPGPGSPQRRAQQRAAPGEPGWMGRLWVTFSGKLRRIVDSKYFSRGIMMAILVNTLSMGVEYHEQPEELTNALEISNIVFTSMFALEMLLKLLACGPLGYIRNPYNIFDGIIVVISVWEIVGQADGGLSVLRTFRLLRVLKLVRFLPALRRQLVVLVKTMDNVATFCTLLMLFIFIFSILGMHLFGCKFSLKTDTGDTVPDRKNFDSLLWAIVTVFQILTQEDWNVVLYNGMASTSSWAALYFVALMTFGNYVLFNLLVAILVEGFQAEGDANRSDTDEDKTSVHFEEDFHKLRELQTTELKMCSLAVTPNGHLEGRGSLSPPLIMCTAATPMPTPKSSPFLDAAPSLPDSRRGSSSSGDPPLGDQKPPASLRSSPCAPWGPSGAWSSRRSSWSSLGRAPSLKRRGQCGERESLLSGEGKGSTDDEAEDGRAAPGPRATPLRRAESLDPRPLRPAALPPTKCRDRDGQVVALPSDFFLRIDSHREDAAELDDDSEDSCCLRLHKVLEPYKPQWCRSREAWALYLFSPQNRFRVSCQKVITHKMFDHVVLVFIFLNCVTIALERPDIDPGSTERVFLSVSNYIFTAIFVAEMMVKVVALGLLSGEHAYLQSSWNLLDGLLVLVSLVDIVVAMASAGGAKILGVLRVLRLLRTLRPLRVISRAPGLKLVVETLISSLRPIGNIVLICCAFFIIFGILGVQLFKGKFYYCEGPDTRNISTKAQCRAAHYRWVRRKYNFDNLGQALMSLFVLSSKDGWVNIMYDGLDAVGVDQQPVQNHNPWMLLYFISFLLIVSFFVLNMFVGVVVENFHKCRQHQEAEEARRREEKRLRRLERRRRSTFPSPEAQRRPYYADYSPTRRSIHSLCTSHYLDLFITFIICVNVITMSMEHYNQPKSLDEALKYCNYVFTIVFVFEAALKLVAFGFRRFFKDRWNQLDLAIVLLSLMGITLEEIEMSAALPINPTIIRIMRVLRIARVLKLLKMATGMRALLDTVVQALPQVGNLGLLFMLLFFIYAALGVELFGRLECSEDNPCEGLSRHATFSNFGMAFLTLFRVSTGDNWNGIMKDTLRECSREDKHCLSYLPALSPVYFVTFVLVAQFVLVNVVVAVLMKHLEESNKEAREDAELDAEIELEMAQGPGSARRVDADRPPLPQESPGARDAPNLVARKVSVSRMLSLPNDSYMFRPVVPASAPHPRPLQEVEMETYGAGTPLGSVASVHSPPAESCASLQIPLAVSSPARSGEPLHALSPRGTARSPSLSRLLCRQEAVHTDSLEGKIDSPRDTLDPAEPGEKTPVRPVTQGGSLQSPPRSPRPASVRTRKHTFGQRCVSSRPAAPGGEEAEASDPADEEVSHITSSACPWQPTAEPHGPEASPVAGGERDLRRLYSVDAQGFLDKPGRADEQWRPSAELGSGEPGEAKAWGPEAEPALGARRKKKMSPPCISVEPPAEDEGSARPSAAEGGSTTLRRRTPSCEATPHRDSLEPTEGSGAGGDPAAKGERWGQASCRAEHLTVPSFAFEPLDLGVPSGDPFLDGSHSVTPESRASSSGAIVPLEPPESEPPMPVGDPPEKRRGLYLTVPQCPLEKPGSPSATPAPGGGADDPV
UniProt O43497, whole entry: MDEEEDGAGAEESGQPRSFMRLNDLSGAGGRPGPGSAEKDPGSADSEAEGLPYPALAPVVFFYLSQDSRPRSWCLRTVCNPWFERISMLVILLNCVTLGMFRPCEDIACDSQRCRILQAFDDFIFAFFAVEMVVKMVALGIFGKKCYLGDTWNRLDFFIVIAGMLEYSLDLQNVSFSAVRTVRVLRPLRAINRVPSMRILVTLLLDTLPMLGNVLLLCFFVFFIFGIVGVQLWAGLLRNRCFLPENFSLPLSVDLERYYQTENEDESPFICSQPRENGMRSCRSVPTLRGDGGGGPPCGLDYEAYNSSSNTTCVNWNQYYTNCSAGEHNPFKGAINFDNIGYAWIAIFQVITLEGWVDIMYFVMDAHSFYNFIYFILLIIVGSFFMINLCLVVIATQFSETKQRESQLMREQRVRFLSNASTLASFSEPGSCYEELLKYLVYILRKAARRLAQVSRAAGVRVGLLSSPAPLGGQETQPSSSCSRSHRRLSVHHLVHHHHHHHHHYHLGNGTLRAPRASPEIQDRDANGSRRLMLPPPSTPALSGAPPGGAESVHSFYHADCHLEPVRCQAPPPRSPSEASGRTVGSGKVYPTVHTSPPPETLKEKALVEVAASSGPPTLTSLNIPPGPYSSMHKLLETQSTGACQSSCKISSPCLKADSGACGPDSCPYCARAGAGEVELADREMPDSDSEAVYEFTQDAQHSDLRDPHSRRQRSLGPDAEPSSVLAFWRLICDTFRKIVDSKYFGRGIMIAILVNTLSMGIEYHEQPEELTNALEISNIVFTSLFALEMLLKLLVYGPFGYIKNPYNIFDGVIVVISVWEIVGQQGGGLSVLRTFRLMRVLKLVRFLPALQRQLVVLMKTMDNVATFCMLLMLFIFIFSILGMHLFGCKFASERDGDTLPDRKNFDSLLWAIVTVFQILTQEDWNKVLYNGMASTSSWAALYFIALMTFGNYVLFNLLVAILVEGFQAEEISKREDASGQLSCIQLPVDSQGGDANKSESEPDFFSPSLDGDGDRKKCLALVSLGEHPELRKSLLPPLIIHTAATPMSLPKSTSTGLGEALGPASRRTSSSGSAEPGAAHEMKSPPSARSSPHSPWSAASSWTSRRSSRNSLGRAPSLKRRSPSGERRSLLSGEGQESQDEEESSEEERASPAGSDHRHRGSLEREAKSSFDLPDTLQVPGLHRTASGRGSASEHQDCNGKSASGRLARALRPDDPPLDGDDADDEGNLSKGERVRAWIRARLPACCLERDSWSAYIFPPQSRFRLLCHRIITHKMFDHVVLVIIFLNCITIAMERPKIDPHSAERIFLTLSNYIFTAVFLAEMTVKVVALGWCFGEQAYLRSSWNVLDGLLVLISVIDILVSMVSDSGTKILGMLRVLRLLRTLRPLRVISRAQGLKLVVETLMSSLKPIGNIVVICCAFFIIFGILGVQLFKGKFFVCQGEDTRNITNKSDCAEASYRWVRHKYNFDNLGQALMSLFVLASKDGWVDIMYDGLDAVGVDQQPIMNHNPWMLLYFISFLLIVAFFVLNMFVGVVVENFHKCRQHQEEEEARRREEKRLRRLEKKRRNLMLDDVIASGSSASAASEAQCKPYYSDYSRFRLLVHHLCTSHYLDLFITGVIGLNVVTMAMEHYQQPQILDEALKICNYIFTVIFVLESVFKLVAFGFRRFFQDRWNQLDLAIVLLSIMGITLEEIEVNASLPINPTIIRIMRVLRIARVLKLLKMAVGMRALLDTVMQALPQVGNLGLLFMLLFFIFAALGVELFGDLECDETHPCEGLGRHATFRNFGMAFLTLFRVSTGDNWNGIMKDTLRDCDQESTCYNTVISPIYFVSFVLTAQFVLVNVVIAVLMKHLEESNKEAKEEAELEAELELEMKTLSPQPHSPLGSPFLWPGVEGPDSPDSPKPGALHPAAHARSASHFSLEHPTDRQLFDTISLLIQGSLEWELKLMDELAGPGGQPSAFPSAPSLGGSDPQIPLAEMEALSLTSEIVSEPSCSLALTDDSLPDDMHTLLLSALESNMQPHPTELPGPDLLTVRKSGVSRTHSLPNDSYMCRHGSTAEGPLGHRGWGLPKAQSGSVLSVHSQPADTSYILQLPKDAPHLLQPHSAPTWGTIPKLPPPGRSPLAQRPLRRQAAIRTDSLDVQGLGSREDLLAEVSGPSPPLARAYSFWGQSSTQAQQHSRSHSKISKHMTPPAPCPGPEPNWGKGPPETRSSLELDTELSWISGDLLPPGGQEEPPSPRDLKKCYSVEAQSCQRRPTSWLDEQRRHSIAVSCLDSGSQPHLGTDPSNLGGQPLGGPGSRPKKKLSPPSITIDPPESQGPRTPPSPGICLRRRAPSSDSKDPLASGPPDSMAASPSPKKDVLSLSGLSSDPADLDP

For assay [1], the target named is human α1H T-type channels (Homo sapiens, UniProt O95180). Briefly: T-type calcium channel block, whole cell patch clamp in HEK cells (α1H). Conditions: read-out: T-type Calcium Channel Block α1H IC50, mainly non-inactivated protocol, values above 10 μM shown as 10 μM. Format: cell-based. Background: In patch-clamp work, channel activity is measured electrically.
In assay [2] the target is human α1G T-type channels (Homo sapiens, UniProt O43497). Briefly: T-type calcium channel block, whole cell patch clamp in HEK cells (α1G). Type of assay: cell-based. The note with it: read-out: T-type Calcium Channel Block α1G IC50, mainly non-inactivated protocol, values above 10 μM shown as 10 μM, below 0.30 μM shown as 0.30 μM.

Structures are written as SMILES. pIC50: −log10 of the molar value. The match of structure and compound is tentative. A value given as a limit tells only on which side of the number the result lay.

A word on the pIC50: it is −log10 of the IC50, conventionally taken in molar units. For `CC1CCCN(CC(=O)N2CCC(CNC(=O)c3cc(C(F)(F)F)cc(C(F)(F)F)c3)CC2)C1` (stereo not drawn), the pIC50 in assay [1] is 5.92; in assay [2] it was 5.61. `Cc1cc(C)cc(C(=O)NCC2CCN(CCNS(=O)(=O)C(F)(F)F)CC2)c1`: in assay [1], the pIC50 is less than 5.00.
